Measurements published in patent US20190284272A1 (published 2019).
Positions count from the first letter of the chain named. Results are given in words; binding and its absence hold for the method and conditions named. A result given as binding can be weak or reduced; the word gives no strength.

B1: Feline 15H05 1.1 (antibody, V domains shown)
VH: QVLLVQSGAEVRTPGASVKIFCKASGYSFTSYTIHWLRQAPAQGLEWMGNINPTSGYTENNQRFKDRLTLTADTSTNTAYMELSSLRSADTAMYYCARWGFKYDGEWSFDVWGAGTTVTVSS
VL: EIQMTQSPSSLSASPGDRVTITCRASQGISIWLSWYQQKPGKVPKLLIYKASNLHIGVPSRFSGSGSGTDFTLTISSLEPEDAATYYCLQSQTYPLTFGGGTKLEIK
B2: Feline 15H05 2.2 (antibody, V domains shown)
VH: B1 VH with S28G, L37V, A40S
VL: EITMTQSPGSLAGSPGQQVTMNCRASQGISIWLSWYQQKPGQHPKLLIYKASNLHIGVPDRFSGSGSGTDFTLTISNLQAEDVASYYCLQSQTYPLTFGGGTKLEIK
B3: Feline 15H05 3.2 (antibody, V domains shown)
VH: B1 VH with T13K, A42E
VL: B2 VL
B4: Feline 15H05 1.1 FW1 (antibody, V domains shown)
VH: B1 VH
VL: B1 VL with E1D, T5N, P15L, R18T, V19I, I21V
B5: Feline 15H05 1.1 FW3 (antibody, V domains shown)
VH: B1 VH
VL: B1 VL with S60P, D70H, S76T, E79Q, A83I
B6: Feline 15H05 1.1 FW1_2 (antibody, V domains shown)
VH: B1 VH
VL: B1 VL with E1D, T5N, P15L, R18T, V19I, I21V, K42N, V43I, L46V, Y49N
B7: Feline 15H05 1.1 FW1_3 (antibody, V domains shown)
VH: B1 VH
VL: DIQMNQSPSSLSASLGDTITVTCRASQGISIWLSWYQQKPGKVPKLLIYKASNLHIGVPPRFSGSGSGTHFTLTITSLQPEDIATYYCLQSQTYPLTFGGGTKLEIK
B8: mouse: feline 15H05 chimera (antibody)
heavy: QVQLQQSAAELARPGASVKMSCKTSGYTFTSYTIHWIKQRPGQGLEWIGNINPTSGYTENNQRFKDKTTLTVDRSSNTAYLQLHSLTSEDSAVYFCARWGFKYDGEWSFDVWGAGTTVTVSSASTTAPSVFPLAPSCGTTSGATVALACLVLGYFPEPVTVSWNSGALTSGVHTFPAVLQASGLYSLSSMVTVPSSRWLSDTFTCNVAHPPSNTKVDKTVRKTDHPPGPKPCDCPKCPPPEAAGAPSIFIFPPKPKDTLSISRTPEVTCLVVDLGPDDSDVQITWFVDNTQVYTAKTSPREEQFNSTYRVVSVLPILHQDWLKGKEFKCKVNSKSLPSPIERTISKAKGQPHEPQVYVLPPAQEELSRNKVSVTCLIKSFHPPDIAVEWEITGQPEPENNYRTTPPQLDSDGTYFVYSKLSVDRSHWQRGNTYTCSVSHEALHSHHTQKSLTQSPGK
light: DIQMNQSPSSLSASLGDTITVTCRASQGISIWLSWYQQKPGNIPKVLINKASNLHIGVPPRFSGSGSGTHFTLTITSLQPEDIATYYCLQSQTYPLTFGGGTKLEINRSDAQPSVFLFQPSLDELHTGSASIVCILNDFYPKEVNVKWKVDGVVQNKGIQESTTEQNSKDSTYSLSSTLTMSSTEYQSHEKFSCEVTHKSLASTLVKSFQRSECQRE
B9: 15H05 mouse: canine chimera (antibody)
heavy: QVQLQQSAAELARPGASVKMSCKTSGYTFTSYTIHWIKQRPGQGLEWIGNINPTSGYTENNQRFKDKTTLTVDRSSNTAYLQLHSLTSEDSAVYFCARWGFKYDGEWSFDVWGAGTTVTVSSASTTAPSVFPLAPSCGSTSGSTVALACLVSGYFPEPVTVSWNSGSLTSGVHTFPSVLQSSGLYSLSSMVTVPSSRWPSETFTCNVAHPASKTKVDKPVPKRENGRVPRPPDCPKCPAPEMLGGPSVFIFPPKPKDTLLIARTPEVTCVVVDLDPEDPEVQISWFVDGKQMQTAKTQPREEQFNGTYRVVSVLPIGHQDWLKGKQFTCKVNNKALPSPIERTISKARGQAHQPSVYVLPPSREELSKNTVSLTCLIKDFFPPDIDVEWQSNGQQEPESKYRTTPPQLDEDGSYFLYSKLSVDKSRWQRGDTFICAVMHEALHNHYTQESLSHSPGK
light: DIQMNQSPSSLSASLGDTITVTCRASQGISIWLSWYQQKPGNIPKVLINKASNLHIGVPPRFSGSGSGTHFTLTITSLQPEDIATYYCLQSQTYPLTFGGGTKLEINRNDAQPAVYLFQPSPDQLHTGSASVVCLLNSFYPKDINVKWKVDGVIQDTGIQESVTEQDKDSTYSLSSTLTMSSTEYLSHELYSCEITHKSLPSTLIKSFQRSEC
B10: mouse: feline 11E12 chimera (antibody)
heavy: QVQLQQSGAELVKPGASVKLSCKASGYTFKYYDINWVRQRPEQGLEWIGWIFPGDGGTKYNETFKGKATLTTDKSSSTAYMQLSRLTSEDSAVYFCARGGTSVIRDAMDYWGQGTSVTVSSASTTAPSVFPLAPSCGTTSGATVALACLVLGYFPEPVTVSWNSGALTSGVHTFPAVLQASGLYSLSSMVTVPSSRWLSDTFTCNVAHPPSNTKVDKTVRKTDHPPGPKPCDCPKCPPPEAAGAPSIFIFPPKPKDTLSISRTPEVTCLVVDLGPDDSDVQITWFVDNTQVYTAKTSPREEQFNSTYRVVSVLPILHQDWLKGKEFKCKVNSKSLPSPIERTISKAKGQPHEPQVYVLPPAQEELSRNKVSVTCLIKSFHPPDIAVEWEITGQPEPENNYRTTPPQLDSDGTYFVYSKLSVDRSHWQRGNTYTCSVSHEALHSHHTQKSLTQSPGK
light: DIVLTQSPASLAVSLGQRATISCRASESVDNYGISFMHWYQQKPGQPPKLLIYRASNLESGIPARFSGSGSRTDFTLTINPVETDDVATYYCQQSNKDPLTFGAGTKLELKRSDAQPSVFLFQPSLDELHTGSASIVCILNDFYPKEVNVKWKVDGVVQNKGIQESTTEQNSKDSTYSLSSTLTMSSTEYQSHEKFSCEVTHKSLASTLVKSFQRSECQRE
B11: mouse: canine 11E12 chimera (antibody)
heavy: QVQLQQSGAELVKPGASVKLSCKASGYTFKYYDINWVRQRPEQGLEWIGWIFPGDGGTKYNETFKGKATLTTDKSSSTAYMQLSRLTSEDSAVYFCARGGTSVIRDAMDYWGQGTSVTVSSASTTAPSVFPLAPSCGSTSGSTVALACLVSGYFPEPVTVSWNSGSLTSGVHTFPSVLQSSGLYSLSSMVTVPSSRWPSETFTCNVAHPASKTKVDKPVPKRENGRVPRPPDCPKCPAPEMLGGPSVFIFPPKPKDTLLIARTPEVTCVVVDLDPEDPEVQISWFVDGKQMQTAKTQPREEQFNGTYRVVSVLPIGHQDWLKGKQFTCKVNNKALPSPIERTISKARGQAHQPSVYVLPPSREELSKNTVSLTCLIKDFFPPDIDVEWQSNGQQEPESKYRTTPPQLDEDGSYFLYSKLSVDKSRWQRGDTFICAVMHEALHNHYTQESLSHSPGK
light: DIVLTQSPASLAVSLGQRATISCRASESVDNYGISFMHWYQQKPGQPPKLLIYRASNLESGIPARFSGSGSRTDFTLTINPVETDDVATYYCQQSNKDPLTFGAGTKLELKRNDAQPAVYLFQPSPDQLHTGSASVVCLLNSFYPKDINVKWKVDGVIQDTGIQESVTEQDKDSTYSLSSTLTMSSTEYLSHELYSCEITHKSLPSTLIKSFQRSEC
B12: Feline 15H05 1.2 (antibody, V domains shown)
VH: B1 VH
VL: B2 VL
B13: Feline 15H05 1.3 (antibody, V domains shown)
VH: B1 VH
VL: EVVLTQSSAFLSRTLKEKATITCRASQGISIWLSWYQQKPNQAPKLLVKKASNLHIGAPSRFSGSGSGTDFTLTISSPEPEDAATYYCLQSQTYPLTFGGGTKLGDQ
B14: Feline 15H05 2.1 (antibody, V domains shown)
VH: B1 VH with S28G, L37V, A40S
VL: B1 VL
B15: Feline 15H05 2.3 (antibody, V domains shown)
VH: B1 VH with S28G, L37V, A40S
VL: B13 VL
B16: Feline 15H05 3.1 (antibody, V domains shown)
VH: B1 VH with T13K, A42E
VL: B1 VL
B17: Feline 15H05 3.3 (antibody, V domains shown)
VH: B1 VH with T13K, A42E
VL: B13 VL
B18: ZIL154 (antibody, V domains shown)
VH: EVHLVESGGDLVKPWGSLRLSCVASGFTFSDRGMSWVRQSPGKGLQWVAYIRYDGSRTDYADAVEGRFTISRDNAKNTLYLQMNSLRAEDTAVYYCARWDGSSFDYWGQGTLVTVSS
VL: DIVVTQTPLSLSVSPGETASFSCKASQSLLHSDGNTYLDWFRQKPGQSPQRLIYKVSNRDPGVPDRFSGSGSGTDFTLRISGVEADDAGLYYCMQAIHFPLTFGAGTKVELKR
notes: Recombinant fully canine IgG (65_1), HEK 293; also called CAN-ZIL154

The binders below were run against canine IL-31 protein (Canine_IL31) (canine) (assay: SPR (Biacore), FIG. 2 Section C).

Binder | binding
B1 | binds
B2 | binds
B3 | binds
B4 | binds
B5 | binds
B6 | binds
B7 | binds

The binders below were run against wildtype feline IL-31 protein (Feline_IL31_wildtype) (feline) (assay: SPR (Biacore), FIG. 2 Section C).

Binder | binding
B4 | binds
B5 | binds
B6 | binds
B7 | binds

Each binder was assayed against canine IL-31 protein (Canine_IL31) (canine) (assay: SPR (Biacore), FIG. 2 Section A).

Binder | binding
B8 | binds
B9 | binds

Each binder was assayed against wildtype feline IL-31 protein (Feline_IL31_wildtype) (feline) (assay: SPR (Biacore), FIG. 2 Section A).

Binder | binding
B10 | binds
B8 | binds
B11 | binds
B9 | binds

Each binder was assayed against wildtype feline IL-31 protein (Feline_IL31_wildtype) (feline) (assay: SPR (Biacore), FIG. 2 Sections A and C).

Binder | binding
B1 | binds
B12 | binds
B13 | binds
B14 | binds
B2 | binds
B15 | binds
B16 | binds
B3 | binds
B17 | binds

What follows are binders tested against wildtype feline IL-31 protein (Feline_IL31_wildtype) (feline) (assay: Biacore, IL-31 surface, single antibody concentration (FIG. 4)).

Binder | binding
B18 | binds
